Measured values published in US4880809A, “1,4-disubstituted piperazines (or homopiperazines) as platelet-activating factor antagonists” (Takeda Chemical Industries, Ltd., priority 1987, dated 1989).

Tested on: diabetic nephropathy
Test: Action Against Diabetic Nephropathy
Format: in vivo, Female KKAy mice
Details: 3 weeks, N 8
Description: Female KKAy mice of 10 weeks old were employed. Test animals were administered with the compound of Example 62 for three weeks at doses of 8 and 26 mg/kg/day in admixture with feedstuff. Then, urine was collected from these animals for 24 hours. Urine desalted (filtered urine) by means of a PD-10 column (Pharmacia) was employed to determine the total protein concentration in the urine by using a protein-assay kit (Bio-Rad). The amount ot albumin in the urine was calculated from the relative concentration of albumin to the total protein determined by means of electrophoresis.
Glucose and triglyceride in the plasma were determined by an enzyme method using the Ankol Chemistry System (Baker instruments).

## COc1cc2c(cc1OC)CCCC(C(=O)N1CCN(C(=O)c3cc(OC)c(OC)c(OC)c3)CC1)=C2 [Example 62, 1-(2,3-dimethoxy-6,7-dihydro-5H-benzocyclohepten-8-ylcarbonyl)-4-(3,4,5-trimethoxybenzoyl)piperazine]
8 mg/kg/day p.o.
  Body Weight: 44.8 g
26 mg/kg/day p.o.
  Body Weight: 43.3 g
